Data: US20110287468A1, “METHODS AND COMPOSITIONS FOR ASSAYING ENZYMATIC ACTIVITY OF MYELOPEROXIDASE IN BLOOD SAMPLES” (General Atomics, priority 2010, published 2011)
Some results were stated once for a whole list of compounds, not compound by compound.

Target: T1, MPO (Homo sapiens, UniProt P05164)
T1 construct: In a cuvette, 140 μL of Reagent 1 and 25 μL of plasma sample were mixed; from tissue; host or cells: human lithium heparin plasma
T1 sequence (P05164 49-745): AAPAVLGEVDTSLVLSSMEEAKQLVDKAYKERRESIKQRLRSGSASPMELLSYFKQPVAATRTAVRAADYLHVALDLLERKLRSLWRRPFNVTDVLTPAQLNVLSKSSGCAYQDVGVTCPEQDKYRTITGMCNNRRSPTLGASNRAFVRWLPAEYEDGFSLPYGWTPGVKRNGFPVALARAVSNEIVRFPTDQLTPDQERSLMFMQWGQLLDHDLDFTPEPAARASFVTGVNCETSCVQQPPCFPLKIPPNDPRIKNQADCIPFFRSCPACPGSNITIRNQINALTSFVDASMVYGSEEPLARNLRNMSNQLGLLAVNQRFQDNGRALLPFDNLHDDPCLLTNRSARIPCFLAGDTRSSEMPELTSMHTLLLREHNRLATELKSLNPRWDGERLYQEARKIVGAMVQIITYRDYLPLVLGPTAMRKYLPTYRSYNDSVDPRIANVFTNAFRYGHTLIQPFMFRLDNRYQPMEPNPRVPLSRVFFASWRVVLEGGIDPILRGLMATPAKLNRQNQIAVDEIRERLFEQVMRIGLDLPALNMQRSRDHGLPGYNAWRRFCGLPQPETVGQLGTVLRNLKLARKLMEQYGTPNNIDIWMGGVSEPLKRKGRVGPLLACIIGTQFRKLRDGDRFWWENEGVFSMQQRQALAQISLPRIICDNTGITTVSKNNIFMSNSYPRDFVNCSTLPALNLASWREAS
Test: MPO peroxidase assay in lithium heparin plasma (Hitachi 917): effects of common plasma substances on assay performance
Type: biochemical

O=C1O[C@H]([C@@H](O)CO)C(O)=C1O [Ascorbic acid]
deviation of MPO assay result (tested up to 0.2 mM in plasma): less than 10%

C=CC1=C(C)/C(=C/c2[nH]c(Cc3[nH]c(/C=C4\NC(=O)C(C)=C4C=C)c(C)c3CCC(=O)O)c(CCC(=O)O)c2C)NC1=O [bilirubin (free), bilirubin]
deviation of MPO assay result (tested up to 40 mg/dL in plasma): less than 10%

CC(C)Cc1ccc(C(C)C(=O)O)cc1 (centres unmarked) [ibuprofen]
deviation of MPO assay result (tested up to 50.0 mg/dL in plasma): less than 10%

CC[C@H](C)C(=O)O[C@H]1C[C@@H](C)C=C2C=C[C@H](C)[C@H](CC[C@@H]3C[C@@H](O)CC(=O)O3)[C@H]21 [lovastatin]
deviation of MPO assay result (tested up to 5.0 mg/dL in plasma): less than 10%

O=C(O)c1ccccc1O [salicylic acid]
deviation of MPO assay result (tested up to 60.0 mg/dL in plasma): less than 10%
